# In patent publication US20220008365A1, “Treating Intraocular Retinoblastoma with Inhibitors of Histone Modification” (Vanderbilt University, priority 2018, published 2022):
# System: human retinoblastoma cells
# Test: killing of human retinoblastoma cells in cell culture
# Type: cell-based
# Settings: brief pulse exposure, multiple concentrations
# Method: The present inventors have additionally determined the pharmacokinetics of belinostat when injected directly into the vitreous of the rabbit eye and have calculated its intraocular half-life in vivo. […] Specifically, once the PK curve of intravitreally-injected belinostat was determined and the half-life calculated, human retinoblastoma cells were incubated in cell culture in media containing varying concentrations of belinostat for a length of time equivalent to 5 intraocular half-lives, the media was then replaced with belinostat-free media and incubated for 7 days, and the number of surviving cells was then determined. Then, as an example, the present inventors back-calculated the initial intravitreal injection dose that would ensure that a concentration equal to or above the in vitro IC90 would be achieved even out to 5 half-lives, in vivo.
smiles,measurement,value
"O=C(CCCCCCC(=O)Nc1ccccc1)NO [vorinostat, suberanilohydroxamic acid]",killing of human retinoblastoma cells by a brief pulse of HDAC inhibitor,can be killed by exposure to a brief pulse
